Data: the supplement of paper PMC3334620
Whole data set: some 33,000 sequences, median “E-score (-0.5 to 0.5)” near -0.0059, cut for the highest 2% near 0.26. Some of the results follow.

molecular target: T1, Cin5 (UniProt P40917); test: PBM E-score (8-mer binding enrichment) (E-score (-0.5 to 0.5)); higher = stronger / more preferred TF binding; details: protein concentration: 100 nM; construct: GST-full length
T1 sequence: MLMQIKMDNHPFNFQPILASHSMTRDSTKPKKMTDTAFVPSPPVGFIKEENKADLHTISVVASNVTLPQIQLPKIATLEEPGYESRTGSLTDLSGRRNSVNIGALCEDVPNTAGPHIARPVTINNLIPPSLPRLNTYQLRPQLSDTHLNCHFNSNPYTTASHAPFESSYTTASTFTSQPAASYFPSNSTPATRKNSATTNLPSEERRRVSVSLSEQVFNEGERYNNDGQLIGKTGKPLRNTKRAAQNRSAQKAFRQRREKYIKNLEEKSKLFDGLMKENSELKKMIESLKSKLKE
Method in brief: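 PURExpress in vitro transcription/translation supplied GST-tagged yeast transcription factors, either full-length or DNA-binding domain. Applied at about 100-200 nM to universal all-10-mer Agilent arrays double-stranded by primer extension, the bound protein was detected with fluorescent anti-GST. E-scores, modified Wilcoxon-Mann-Whitney statistics, were given by the Universal PBM Analysis Suite to ungapped eight-base words pooled with their reverse complements after masliner normalisation.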

| Sequence | PBM E-score |
| --- | --- |
| TACGGGCA | -0.157 |
| ATAGATAG | 0.0352 |
| ACGCACAT | 0.0755 |
| CTCATGAC | 0.0295 |
| AGACGGCG | 0.085 |
| CCAAGCAG | -0.103 |
| AACCAGTC | -0.165 |
| AGGCGTGG | -0.2 |
| AATCTGTG | 0.122 |
| AACTAGCG | 0.102 |
| ATTACGTG | 0.423 |
| CGCTTACG | 0.379 |
| GGATCTAA | -0.0599 |
| ACACTCCA | 0.0651 |
| CTAACCCC | -0.197 |
| GAGGGATA | -0.313 |
| GGATCGTA | -0.0235 |
| GTCGGCTA | -0.0338 |
| CTATCAGC | 0.121 |
| CCATTGAA | 0.135 |
| AATAGTAG | 0.144 |
| GTCATACA | 0.162 |
| AAAGTACG | 0.12 |
| CGCAATTA | 0.0824 |
| GTTTGATA | 0.19 |

| Sequence | PBM E-score |
| --- | --- |
| ACAAAGCT | 0.0727 |
| GCCTTCAA | -0.118 |
| ATATCGCC | 0.0352 |
| AGTGCATG | -0.0115 |
| AACACACT | 0.22 |
| CCTAGCGC | -0.0991 |
| CAACCGTC | -0.179 |
| ACTTTCAC | 0.0418 |
| ATTATACC | 0.187 |
| TGACCCAA | 0.0896 |
| CTCTAGTC | -0.222 |
| TAGCCAAA | 0.0484 |
| ATATTGCA | 0.167 |
| AAACTGGC | 0.0555 |
| ATCAGAAC | 0.0397 |
| CCTTGCGA | 0.0783 |
| AGGGGGTA | -0.489 |
| AGCTGGCA | 0.0328 |
| GGCACGTA | -0.112 |
| AGTCGGAG | -0.214 |
| ATACGGGG | -0.0881 |
| CTTTCGAC | -0.0607 |
| GCAACGGC | -0.0325 |
| GCCACTAC | -0.0516 |
| GGCCCTCA | -0.342 |

Some values from the list:
Value for ATATTGCA under PBM E-score: 0.167
Value for ATACGGGG under PBM E-score: -0.0881
Value for ATTATACC under PBM E-score: 0.187

Remaining list, next part.

| Sequence | PBM E-score |
| --- | --- |
| AGCCCTGG | -0.305 |
| ACGCATAA | 0.0967 |
| ACACATTA | 0.133 |
| CTTAGGCA | -0.266 |
| ACCGTCAC | -0.307 |
| AAGAGGTA | 0.0509 |
| GACATCTC | -0.0668 |
| AACGCTTA | 0.125 |
| CGTTGTAG | 0.105 |
| TATGCGAA | 0.131 |
| AGGTATCG | 0.0479 |
| CGCTATTA | 0.0337 |
| CTGGGGTC | 0.1 |
| CAAAGGAA | 0.148 |
| AAGTCTAT | -0.028 |
| CATTTGGG | 0.0397 |
| CGCACGTC | -0.0886 |
| GCAATTCA | 0.056 |
| GAGCCGTA | 0.0973 |
| CACCAATA | 0.0315 |
| AGACTAAT | -0.149 |
| ACCAGATA | 0.157 |
| AGCTGGCG | -0.178 |
| CCCCACTC | -0.0562 |
| ACCTGCTC | -0.0402 |

| Sequence | PBM E-score |
| --- | --- |
| CATGTAAC | 0.0447 |
| TAGAGTGA | -0.134 |
| ACGTTCCA | 0.0533 |
| ACGCAATC | 0.0758 |
| CCTGGACG | -0.179 |
| AACTAGGT | 0.118 |
| AGCAATTA | 0.213 |
| GGTGAACA | -0.203 |
| AACTGAGG | -0.0198 |
| AATGACTG | 0.0689 |
| ATTCCGAC | 0.0717 |
| CGAAGCCA | -0.0869 |
| AGGTACAA | -0.0713 |
| AACCACAA | 0.163 |
| GCGCCTTA | 0.109 |
| GTAACTAC | 0.189 |
| AAATCTCT | 0.0834 |
| CGGAGGCA | -0.0866 |
| CGACAGAC | -0.0325 |
| AACCTGTA | 0.0236 |
| GACCCCGC | 0.0921 |
| ACTATTTG | 0.2 |
| AGTGGACG | 0.121 |
| CCCAGGAA | -0.103 |
| CCACCCTC | 0.153 |

| Sequence | PBM E-score |
| --- | --- |
| ATGCCGAA | 0.041 |
| ATTCGAAT | -0.0194 |
| GAAGACGA | 0.16 |
| ACGTTGCA | -0.0503 |
| CTTGGCTA | 0.113 |
| CGAAGTCC | -0.134 |
| ATATACGC | 0.0713 |
| TGCCCGCA | 0.0753 |
| GCCGCTGA | 0.0604 |
| AATGCTGA | 0.118 |
| GACCCTCA | -0.275 |
| GTATAAGA | 0.0464 |
| CCCACCTC | -0.169 |
| GAGACAGC | -0.00537 |
| AGCTTACG | 0.337 |
| GCAGATAA | 0.0212 |
| AATTATGA | 0.257 |
| CCAAGTCG | -0.0522 |
| CGCCTAAG | -0.254 |
| ATCGTGCG | 0.213 |
| CGAACTGA | -0.0752 |
| CGGAGACG | -0.0111 |
| CGCCACTA | -0.0464 |
| TCCACAGA | 0.177 |
| GAACTCCA | 0.0209 |

| Sequence | PBM E-score |
| --- | --- |
| AGACACCA | -0.0438 |
| ACCCCGCA | 0.0374 |
| AGAGTACA | -0.0533 |
| CCTGTTGA | -0.106 |
| AGTTGTAT | 0.122 |
| ATTACGGG | 0.103 |
| ATTGGCAC | -0.00353 |
| CTACGGAC | -0.213 |
| GATACGGA | 0.0896 |
| GAGCGTTA | 0.0107 |
| GCAAGCCA | -0.21 |
| GAATATGC | -0.00758 |
| TAAGATCA | 0.0649 |
| AGATCGCT | -0.0295 |
| ATTCAAAT | 0.139 |
| CTCGCTAA | 0.0174 |
| AGGCAAAT | 0.0818 |
| AAAAACAG | 0.0389 |
| TCGACCCA | 0.025 |
| ATGCATGC | 0.0147 |
| AACGGAAC | 0.241 |
| GACTTGCA | 0.035 |
| AGCAATAA | 0.103 |
| ACAAACTG | -0.0242 |
| AGGCGAGG | -0.184 |

In a second layout: entries from further up
Sequence	PBM E-score
ATAGATAG	0.0352
TAGCCAAA	0.0484
GTATAAGA	0.0464
CGAACTGA	-0.0752

The list goes on.

| Sequence | PBM E-score |
| --- | --- |
| CGGGAAGA | 0.203 |
| ATGTTATC | 0.155 |
| AGTGCTGG | 0.00095 |
| GCCAGACA | -0.00597 |
| GGTGTCAC | 0.0176 |
| ATACCGGG | 0.0701 |
| CTACTGAC | -0.0455 |
| AGAACTAT | 0.124 |
| ACCCGAGC | -0.0675 |
| TGTATCAA | 0.167 |
| ATTCTCTG | -0.0828 |
| GAGCTATA | -0.132 |
| CGCCTCCG | -0.252 |
| AGTTATCA | 0.048 |
| ACACAGAT | 0.106 |
| CCCAGCGA | -0.127 |
| GGCCAACA | -0.0942 |
| CAGCAATG | -0.154 |
| AGACGGTG | -0.241 |
| CAAGACAG | -0.079 |
| ACGAGTTC | 0.128 |
| CTACCTTC | -0.0653 |
